# Test results published in the supplement of paper PMC11006884.
# The chains behind the UniProt entries cited, without tags or fusion partners. Where a name states a change or a piece, a line headed by the entry shows the natural chain unless it says otherwise.
# UniProt Q8NC60: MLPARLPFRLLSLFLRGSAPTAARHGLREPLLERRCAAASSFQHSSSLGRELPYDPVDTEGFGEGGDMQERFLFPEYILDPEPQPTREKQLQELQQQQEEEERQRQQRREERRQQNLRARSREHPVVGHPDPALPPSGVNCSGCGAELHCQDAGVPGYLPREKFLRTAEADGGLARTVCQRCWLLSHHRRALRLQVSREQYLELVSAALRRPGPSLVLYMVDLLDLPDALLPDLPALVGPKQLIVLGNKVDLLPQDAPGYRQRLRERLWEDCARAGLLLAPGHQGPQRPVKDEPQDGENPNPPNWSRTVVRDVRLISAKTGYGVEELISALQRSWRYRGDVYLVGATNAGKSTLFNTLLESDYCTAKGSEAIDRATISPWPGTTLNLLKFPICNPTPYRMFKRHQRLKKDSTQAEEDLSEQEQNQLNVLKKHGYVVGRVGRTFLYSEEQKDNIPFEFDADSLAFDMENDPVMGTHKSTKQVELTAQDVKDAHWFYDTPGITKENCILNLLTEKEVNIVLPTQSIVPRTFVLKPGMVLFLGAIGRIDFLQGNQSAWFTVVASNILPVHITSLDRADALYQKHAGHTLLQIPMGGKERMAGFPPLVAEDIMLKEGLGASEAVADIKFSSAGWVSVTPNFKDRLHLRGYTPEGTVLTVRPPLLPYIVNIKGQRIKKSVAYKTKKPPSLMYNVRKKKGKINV
# UniProt Q8TEX9: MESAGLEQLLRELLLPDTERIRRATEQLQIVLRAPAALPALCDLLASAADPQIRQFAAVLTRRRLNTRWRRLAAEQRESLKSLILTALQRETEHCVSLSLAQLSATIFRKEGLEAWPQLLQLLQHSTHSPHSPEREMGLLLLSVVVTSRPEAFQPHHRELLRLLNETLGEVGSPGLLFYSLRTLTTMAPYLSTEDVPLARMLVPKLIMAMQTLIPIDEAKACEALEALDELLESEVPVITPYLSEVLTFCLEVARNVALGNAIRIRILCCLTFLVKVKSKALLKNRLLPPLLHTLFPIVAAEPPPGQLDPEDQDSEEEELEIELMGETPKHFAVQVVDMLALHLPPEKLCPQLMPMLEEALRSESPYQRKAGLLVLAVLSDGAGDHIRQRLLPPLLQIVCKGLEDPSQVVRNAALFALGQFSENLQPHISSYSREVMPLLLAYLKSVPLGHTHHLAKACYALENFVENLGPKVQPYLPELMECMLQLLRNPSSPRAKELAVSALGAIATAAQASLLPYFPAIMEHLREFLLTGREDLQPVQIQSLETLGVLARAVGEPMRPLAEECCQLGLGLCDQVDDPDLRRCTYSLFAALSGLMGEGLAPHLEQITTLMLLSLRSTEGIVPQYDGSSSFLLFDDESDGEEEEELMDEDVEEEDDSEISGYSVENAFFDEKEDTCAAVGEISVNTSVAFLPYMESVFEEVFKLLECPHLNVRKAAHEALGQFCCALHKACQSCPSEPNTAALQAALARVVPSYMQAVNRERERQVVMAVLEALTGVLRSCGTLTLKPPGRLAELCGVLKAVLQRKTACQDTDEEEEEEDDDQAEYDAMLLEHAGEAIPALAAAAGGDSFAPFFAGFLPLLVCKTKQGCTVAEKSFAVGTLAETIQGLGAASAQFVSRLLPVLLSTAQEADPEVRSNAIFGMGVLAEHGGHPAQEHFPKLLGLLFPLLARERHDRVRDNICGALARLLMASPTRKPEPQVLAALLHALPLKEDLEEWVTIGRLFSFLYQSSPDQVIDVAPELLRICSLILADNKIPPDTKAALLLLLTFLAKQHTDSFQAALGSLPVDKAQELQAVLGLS
# UniProt Q8TB52: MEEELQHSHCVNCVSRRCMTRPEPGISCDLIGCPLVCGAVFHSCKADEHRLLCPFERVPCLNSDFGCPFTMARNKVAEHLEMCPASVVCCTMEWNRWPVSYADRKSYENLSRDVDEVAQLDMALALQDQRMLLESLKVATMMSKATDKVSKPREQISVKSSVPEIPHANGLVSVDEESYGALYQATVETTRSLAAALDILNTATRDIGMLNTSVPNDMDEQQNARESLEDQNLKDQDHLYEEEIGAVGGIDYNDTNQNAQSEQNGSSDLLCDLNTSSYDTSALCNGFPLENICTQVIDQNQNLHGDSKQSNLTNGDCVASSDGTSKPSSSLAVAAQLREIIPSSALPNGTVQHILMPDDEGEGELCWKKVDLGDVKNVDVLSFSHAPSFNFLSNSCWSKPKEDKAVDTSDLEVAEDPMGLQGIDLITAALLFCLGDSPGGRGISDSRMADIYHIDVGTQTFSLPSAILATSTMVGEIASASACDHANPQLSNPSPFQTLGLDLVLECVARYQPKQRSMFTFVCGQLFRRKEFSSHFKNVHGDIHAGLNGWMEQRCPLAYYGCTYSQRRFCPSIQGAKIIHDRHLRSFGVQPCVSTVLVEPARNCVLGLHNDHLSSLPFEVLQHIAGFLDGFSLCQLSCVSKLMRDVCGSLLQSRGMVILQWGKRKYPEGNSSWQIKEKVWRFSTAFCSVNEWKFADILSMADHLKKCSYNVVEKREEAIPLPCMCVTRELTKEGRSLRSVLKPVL
# UniProt Q8WWH5: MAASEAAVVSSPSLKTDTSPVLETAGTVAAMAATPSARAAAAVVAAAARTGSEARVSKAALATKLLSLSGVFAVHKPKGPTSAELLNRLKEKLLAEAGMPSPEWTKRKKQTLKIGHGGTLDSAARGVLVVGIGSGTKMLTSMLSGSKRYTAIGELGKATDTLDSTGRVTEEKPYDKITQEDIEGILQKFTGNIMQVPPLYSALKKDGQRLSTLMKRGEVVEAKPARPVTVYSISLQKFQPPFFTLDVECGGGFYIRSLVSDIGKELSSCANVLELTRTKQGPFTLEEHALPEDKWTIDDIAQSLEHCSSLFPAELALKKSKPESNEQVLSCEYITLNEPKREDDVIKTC
# UniProt Q8N5C6: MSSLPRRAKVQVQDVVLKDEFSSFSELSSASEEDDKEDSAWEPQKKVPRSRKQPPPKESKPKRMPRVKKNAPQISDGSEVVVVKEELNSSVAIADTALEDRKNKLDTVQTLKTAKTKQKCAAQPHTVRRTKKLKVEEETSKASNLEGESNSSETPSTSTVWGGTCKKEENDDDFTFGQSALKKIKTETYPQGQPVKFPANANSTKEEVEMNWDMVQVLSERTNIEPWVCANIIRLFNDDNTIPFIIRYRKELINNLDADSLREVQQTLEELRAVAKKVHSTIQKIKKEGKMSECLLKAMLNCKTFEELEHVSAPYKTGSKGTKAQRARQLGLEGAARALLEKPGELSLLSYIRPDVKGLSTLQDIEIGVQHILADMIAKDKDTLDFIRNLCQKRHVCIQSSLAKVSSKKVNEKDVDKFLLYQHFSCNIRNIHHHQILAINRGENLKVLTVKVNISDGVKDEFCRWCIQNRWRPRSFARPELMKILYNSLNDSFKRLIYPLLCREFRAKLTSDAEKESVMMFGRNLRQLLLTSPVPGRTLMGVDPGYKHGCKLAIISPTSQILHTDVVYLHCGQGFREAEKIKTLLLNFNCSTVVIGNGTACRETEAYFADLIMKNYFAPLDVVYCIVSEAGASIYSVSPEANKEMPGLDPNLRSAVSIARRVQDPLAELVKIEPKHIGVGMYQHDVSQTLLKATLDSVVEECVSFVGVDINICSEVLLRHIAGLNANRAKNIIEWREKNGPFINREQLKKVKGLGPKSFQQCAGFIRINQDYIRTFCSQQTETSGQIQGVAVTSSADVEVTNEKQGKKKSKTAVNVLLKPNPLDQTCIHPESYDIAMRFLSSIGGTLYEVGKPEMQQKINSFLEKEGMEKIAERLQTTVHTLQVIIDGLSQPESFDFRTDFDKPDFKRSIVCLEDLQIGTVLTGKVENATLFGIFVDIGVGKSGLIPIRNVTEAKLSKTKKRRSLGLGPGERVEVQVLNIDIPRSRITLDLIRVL
# UniProt Q8N122, whole entry, looked up: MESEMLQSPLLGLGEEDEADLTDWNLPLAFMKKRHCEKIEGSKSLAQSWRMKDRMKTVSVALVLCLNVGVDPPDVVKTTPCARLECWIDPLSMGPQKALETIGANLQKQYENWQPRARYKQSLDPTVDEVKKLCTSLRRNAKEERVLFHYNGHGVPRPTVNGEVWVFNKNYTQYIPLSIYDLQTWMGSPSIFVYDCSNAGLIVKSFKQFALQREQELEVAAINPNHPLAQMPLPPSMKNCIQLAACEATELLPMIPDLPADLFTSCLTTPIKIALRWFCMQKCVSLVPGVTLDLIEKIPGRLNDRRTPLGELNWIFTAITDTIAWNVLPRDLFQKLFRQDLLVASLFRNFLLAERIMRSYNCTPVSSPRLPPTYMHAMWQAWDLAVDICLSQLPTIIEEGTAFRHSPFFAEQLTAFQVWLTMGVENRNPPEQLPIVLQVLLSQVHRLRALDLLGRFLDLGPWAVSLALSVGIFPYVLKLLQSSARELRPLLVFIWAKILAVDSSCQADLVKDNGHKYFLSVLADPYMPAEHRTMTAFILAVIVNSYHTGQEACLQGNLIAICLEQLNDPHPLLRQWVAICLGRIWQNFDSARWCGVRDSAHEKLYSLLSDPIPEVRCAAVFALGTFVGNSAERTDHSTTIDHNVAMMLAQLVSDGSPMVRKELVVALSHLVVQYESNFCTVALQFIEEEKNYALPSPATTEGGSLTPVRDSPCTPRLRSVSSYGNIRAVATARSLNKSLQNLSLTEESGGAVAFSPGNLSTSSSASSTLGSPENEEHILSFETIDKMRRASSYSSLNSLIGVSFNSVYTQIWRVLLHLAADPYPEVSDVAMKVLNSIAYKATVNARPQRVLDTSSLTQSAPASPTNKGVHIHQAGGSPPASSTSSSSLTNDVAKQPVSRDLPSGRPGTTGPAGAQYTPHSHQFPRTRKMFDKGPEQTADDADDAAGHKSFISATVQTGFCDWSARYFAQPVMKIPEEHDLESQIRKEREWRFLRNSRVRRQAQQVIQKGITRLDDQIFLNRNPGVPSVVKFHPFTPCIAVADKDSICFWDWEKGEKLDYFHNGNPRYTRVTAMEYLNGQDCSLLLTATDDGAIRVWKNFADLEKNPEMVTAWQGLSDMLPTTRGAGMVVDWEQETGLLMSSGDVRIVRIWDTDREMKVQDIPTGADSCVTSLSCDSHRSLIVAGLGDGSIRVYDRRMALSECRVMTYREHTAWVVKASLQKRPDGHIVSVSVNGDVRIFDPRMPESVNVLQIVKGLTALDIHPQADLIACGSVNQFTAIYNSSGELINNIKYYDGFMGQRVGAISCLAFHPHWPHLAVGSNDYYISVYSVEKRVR
# UniProt Q8ND56: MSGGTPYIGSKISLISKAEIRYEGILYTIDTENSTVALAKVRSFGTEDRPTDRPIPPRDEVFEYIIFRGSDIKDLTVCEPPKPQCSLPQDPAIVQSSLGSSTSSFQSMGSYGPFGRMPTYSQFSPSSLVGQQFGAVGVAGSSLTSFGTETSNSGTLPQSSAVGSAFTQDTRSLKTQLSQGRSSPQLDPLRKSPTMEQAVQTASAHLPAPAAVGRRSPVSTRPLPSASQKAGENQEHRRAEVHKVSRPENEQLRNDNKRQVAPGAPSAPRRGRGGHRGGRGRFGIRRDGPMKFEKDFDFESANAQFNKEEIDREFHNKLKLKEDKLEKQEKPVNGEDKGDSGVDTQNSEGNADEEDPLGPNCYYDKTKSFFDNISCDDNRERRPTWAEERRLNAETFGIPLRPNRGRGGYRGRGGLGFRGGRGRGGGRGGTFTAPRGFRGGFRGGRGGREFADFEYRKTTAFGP
# UniProt Q8N163, whole entry, looked up: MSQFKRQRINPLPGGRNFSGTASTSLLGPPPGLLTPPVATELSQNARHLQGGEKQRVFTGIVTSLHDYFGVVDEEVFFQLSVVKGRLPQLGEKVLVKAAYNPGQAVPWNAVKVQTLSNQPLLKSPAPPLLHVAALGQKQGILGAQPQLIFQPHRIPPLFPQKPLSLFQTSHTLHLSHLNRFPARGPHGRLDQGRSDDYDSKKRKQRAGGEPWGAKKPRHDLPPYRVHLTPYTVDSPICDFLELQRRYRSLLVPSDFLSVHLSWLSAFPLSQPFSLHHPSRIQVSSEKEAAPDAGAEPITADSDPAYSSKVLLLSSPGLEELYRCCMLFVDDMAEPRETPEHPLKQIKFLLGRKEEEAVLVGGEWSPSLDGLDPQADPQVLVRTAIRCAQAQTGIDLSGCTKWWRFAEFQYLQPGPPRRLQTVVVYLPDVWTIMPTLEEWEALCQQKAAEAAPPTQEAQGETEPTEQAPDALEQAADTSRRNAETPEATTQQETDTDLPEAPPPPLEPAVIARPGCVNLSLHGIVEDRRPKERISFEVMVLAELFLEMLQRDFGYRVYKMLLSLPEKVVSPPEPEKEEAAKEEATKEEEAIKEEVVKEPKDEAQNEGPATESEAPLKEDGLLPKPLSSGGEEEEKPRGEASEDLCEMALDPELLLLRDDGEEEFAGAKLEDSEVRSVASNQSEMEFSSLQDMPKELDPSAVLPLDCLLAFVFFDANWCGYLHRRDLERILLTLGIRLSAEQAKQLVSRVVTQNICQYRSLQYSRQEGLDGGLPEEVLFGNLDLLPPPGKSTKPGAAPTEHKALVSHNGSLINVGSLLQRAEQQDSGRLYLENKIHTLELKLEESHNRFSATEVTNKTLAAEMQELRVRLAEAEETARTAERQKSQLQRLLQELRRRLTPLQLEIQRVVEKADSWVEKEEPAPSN
# This list holds what a sample rich in targets with a hit left over. This is a noisy data set. This is a selection; strong and weak results do not stand in their true shares.
# Compound: COC(=O)/C=C/c1ccccc1 [methyl cinnamate]
# Assay: log2 ratio of iodoacetamide-alkyne labeling of the cysteine site, DMSO over compound (competition); higher = stronger covalent engagement of the cysteine by the compound, active = 1 or more
# Conditions: 500 µM; treatment time 1 h; system: HEK293T cell lysate
# Summary of the method: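 Three replicates, each with duplicate channels, were prepared from HEK293T lysate (2 mg/mL) treated with vehicle or electrophile at 500 µM for 1 h at ambient temperature. Iodoacetamide alkyne was then applied for 1 h, and samples were clicked to sCIP-TMT reagents, pooled, trypsin-digested overnight at 37 °C, enriched on streptavidin, acid-eluted and analysed on Orbitrap Eclipse LC-MS/MS with FAIMS, with FragPipe quantification. The log2 competition ratio per cysteine is the mean control-channel divided by the mean compound-channel reporter intensity. Cysteines quantified in only one replicate were left out.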
row,Target,log2 ratio of iodoacetamide-alkyne labeling
1,UniProt Q8NBJ5_C203,inactive: 0.269
2,TOR1AIP2 C468 (UniProt Q8NFQ8),inactive: 0.0962
3,UniProt Q8NC60_C364,inactive: 0.0261
4,UBA3 C28 (UniProt Q8TBC4),inactive: 0.311
5,PHF10 C134 (UniProt Q8WUB8),inactive: 0.379
6,UniProt Q8N6R0_C273,inactive: 0.133
7,UniProt Q8N6R0_C391,inactive: -0.00813
8,CISD2 C92 (UniProt Q8N5K1),inactive: -0.071
9,PPP4R1 C645 (UniProt Q8TF05),inactive: 0.191
10,UniProt Q8NFC6_C74,inactive: 0.234
11,UniProt Q8NC60_C505,inactive: -0.201
12,C1orf131 C100 (UniProt Q8NDD1),inactive: 0.394
13,ASCC3 C366 (UniProt Q8N3C0),inactive: 0.0966
14,PHIP C130 (UniProt Q8WWQ0),inactive: 0.211
15,ZNF740 C9 (UniProt Q8NDX6),inactive: 0.458
16,IPO4 C400 (UniProt Q8TEX9),inactive: 0.623
17,DUSP19 C188 (UniProt Q8WTR2),inactive: 0.42
18,PHIP C954 (UniProt Q8WWQ0),inactive: 0.202
19,DDX51 C238 (UniProt Q8N8A6),inactive: -0.00808
20,GATAD2B C420 (UniProt Q8WXI9),inactive: 0.0732
21,INTS1 C1534 (UniProt Q8N201),inactive: 0.121

# Rewritten bar-delimited: entries from further up.
row | Target | log2 ratio of iodoacetamide-alkyne labeling
2 | TOR1AIP2 C468 (UniProt Q8NFQ8) | inactive: 0.0962
3 | UniProt Q8NC60_C364 | inactive: 0.0261

# Following part:

row,Target,log2 ratio of iodoacetamide-alkyne labeling
1,PPP4R1 C78 (UniProt Q8TF05),inactive: -0.00764
2,ARL6IP6 C48 (UniProt Q8N6S5),inactive: 0.265
3,SHROOM3 C1951 (UniProt Q8TF72),inactive: -0.0899
4,DYNC2H1 C3975 (UniProt Q8NCM8),inactive: 0.121
5,PPIL4 C245 (UniProt Q8WUA2),inactive: -0.0624
6,IPO4 C459 (UniProt Q8TEX9),inactive: 0.109
7,UniProt Q8N0X7_C405,inactive: 0.158
8,PUM2 C169 (UniProt Q8TB72),inactive: 0.0956
9,FBXO30 C317 (UniProt Q8TB52),inactive: 0.443
10,TRUB1 C269 (UniProt Q8WWH5),inactive: -0.091
11,SRBD1 C120 (UniProt Q8N5C6),inactive: 0.217
12,UniProt Q8NI60_C641,inactive: 0.326
13,PHIP C612 (UniProt Q8WWQ0),inactive: -0.097
14,XRN1 C1450 (UniProt Q8IZH2),inactive: -0.00444
15,SPATA5 C81 (UniProt Q8NB90),inactive: 0.0532
16,THOC2 C773 (UniProt Q8NI27),inactive: -0.27
17,MTMR14 C429 (UniProt Q8NCE2),inactive: 0.128
18,SYNE2 C5212 (UniProt Q8WXH0),inactive: 0.115
19,UniProt Q8N0X7_C272,inactive: 0.0955
20,UniProt Q8N1G2_C794,inactive: 0.347
21,PSMF1 C185 (UniProt Q92530),inactive: -0.0327

row,Target,log2 ratio of iodoacetamide-alkyne labeling
1,RPTOR C36 (UniProt Q8N122),inactive: 0.221
2,UniProt Q8N0W3_C484,inactive: 0.12
3,UniProt Q8N0Z3_C818,inactive: 0.356
4,LSM14A C375 (UniProt Q8ND56),inactive: 0.423
5,NEK9 C11 (UniProt Q8TD19),inactive: 0.406
6,UniProt Q8N163_C324,inactive: 0.0428
7,UniProt Q8WVV9_C505,inactive: 0.0672
8,ARMC10 C59 (UniProt Q8N2F6),inactive: 0.152
9,ASCC3 C208 (UniProt Q8N3C0),inactive: 0.277
10,WDR48 C342 (UniProt Q8TAF3),inactive: 0.352
11,ING5 C19 (UniProt Q8WYH8),inactive: 0.0175
12,TRUB1 C249 (UniProt Q8WWH5),inactive: -0.0821
13,PPHLN1 C446 (UniProt Q8NEY8),inactive: 0.0375
14,TRUB1 C331 (UniProt Q8WWH5),inactive: 0.135
15,UniProt Q8NEB9_C336,inactive: 0.14
16,UniProt Q8WZA9_C443,inactive: -0.284
17,PALLD C964 (UniProt Q8WX93),inactive: 0.369
18,NHLRC2 C161 (UniProt Q8NBF2),inactive: -0.433
19,FBXO30 C592 (UniProt Q8TB52),inactive: 0.0605
